Source: patent US12245591B2, “Templated antimicrobial microgels and methods of making and using the same” (THE BOARD OF TRUSTEES OF THE UNIVERSITY OF ARKANSAS, priority 2019, dated 2025)
At least one compound was matched to its structure with a doubt left.

Tests used:
[1] = Inhibition of microgel-catalyzed hydrolysis of β-9 by galactonoamidine; assay type: biochemical; settings: pH 7.00, 37° C.
[2] = aqueous CAPS buffer, pH 10.50, 10° C.; ITC; cited from earlier work
[3] = target: β-galactosidase (bovine liver); assay: Inhibition of β-galactosidase-catalyzed hydrolysis of β-9 by galactonoamidine; assay type: biochemical; settings: 5 mM HEPES, pH 7.00, 37° C.

## Cc1ccc(CNC2=NC(CO)C(O)C(O)C2O)cc1 (stereo not drawn) [galactonoamidine 1]
[1]; competitive inhibitor galactonoamidine 1 against catalyst ^Cu2LP1, 5 mM HEPES
  Ki: 100 µM
[1]; inhibitor galactonoamidine 1 against catalyst ^Cu2LP1, 5 mM HEPES, estimated graphically
  IC50: 3200 µM
[2]
  Gibbs free energy of binding (1-5 assembly): -10.3 kcal/mol
  pKa,1-5: 3.5
[3]; competitive inhibitor galactonoamidine 1 against β-galactosidase
  Ki: 0.00016 ± 4e-05 µM
[3]; inhibitor galactonoamidine 1 against β-galactosidase, estimated graphically
  IC50: 0.3 µM
